In PMC5974921:
No constants are given. Whether binding was seen depends on the method and setting. Binding calls can cover weak binding; strength is not graded here.

By UniProt entry, the sequences of proteins in these tests, tags left out. Residues count along the entry.
UniProt Q9HCN6, residues 21-339: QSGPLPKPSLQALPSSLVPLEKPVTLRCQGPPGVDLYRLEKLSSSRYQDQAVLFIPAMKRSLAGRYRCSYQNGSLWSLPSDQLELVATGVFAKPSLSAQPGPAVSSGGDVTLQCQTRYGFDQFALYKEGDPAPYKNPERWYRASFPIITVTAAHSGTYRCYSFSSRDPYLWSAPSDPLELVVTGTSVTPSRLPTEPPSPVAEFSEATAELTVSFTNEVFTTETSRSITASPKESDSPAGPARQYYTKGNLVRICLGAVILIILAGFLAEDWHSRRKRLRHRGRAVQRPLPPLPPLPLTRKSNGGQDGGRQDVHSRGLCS

Target: ProMMP‐13 (UniProt P45452)
Assay: static platelet adhesion assay; plates coated with 10 μg/ml MMP-13 variants, fibrinogen or peptides, blocked with 5% BSA; washed platelets (healthy donor or αIIbβ3-null Glanzmann) added with 2 mmol L^-1 Mg2+ or EDTA, with or without pre-incubation with receptor antagonists; A405; only the target purified

binding	Substance
binds	integrin αIIbβ3 on platelets (from UniProt P08514 32-1039; P05106 27-788) (receptor)
binds	platelet glycoprotein (GP)VI on platelets (from UniProt Q9HCN6 21-339) (receptor)
